Data reported in patent US20240009246A1, “CELLULAR-ANTIMICROBIAL COMBINATION COMPOSITION AND METHODS FOR TREATMENT OF BACTERIAL INFECTIONS OF JOINTS AND SOFT TISSUES” (priority 2021, published 2024).
At least one compound was matched to its structure with a doubt left.

System: Synovial Cells
Experiment: in vitro cytotoxic activity of antibiotics against horse synovial cells
Assay type: cell-based
From the text: Table 1 and 2 represent in vitro evaluation of the cytotoxic activity of different conventional antibiotics, as assessed for toxicity against dog cells (Table 1) or horse cells (Table 2). Similar toxicity profiles would also be anticipated for human cells.
The antibiotics with the highest IC50 values are considered non-cytotoxic, while those with lower values are considered more cytotoxic, and unsuitable for co-administration with activated MSC or activated iMSCs. For example, amikacin and enrofloxacin are more cytotoxic to joint cells (e.g. synovial cells and chondrocytes) than vancomycin, and should not be used for preparing the antibiotic plus activated MSCs formulations of uses herein, whereas vancomycin is one of the preferred antibiotics for these formulations for treating gram+ infections.
Table 2 represents and overview of equine IC50s of certain antibiotics of use herein

## CC1(C)S[C@@H]2[C@H](NC(=O)Cc3ccccc3)C(=O)N2[C@H]1C(=O)[O-].[K+] [Potassium penicillin]
  Concentration (equine IC50): 15.625< × <31.25
